Among the data in PMC11601944 are binding values, retold here.

Amino acid sequences for entries named in this document (tags omitted).
UniProt Q14789: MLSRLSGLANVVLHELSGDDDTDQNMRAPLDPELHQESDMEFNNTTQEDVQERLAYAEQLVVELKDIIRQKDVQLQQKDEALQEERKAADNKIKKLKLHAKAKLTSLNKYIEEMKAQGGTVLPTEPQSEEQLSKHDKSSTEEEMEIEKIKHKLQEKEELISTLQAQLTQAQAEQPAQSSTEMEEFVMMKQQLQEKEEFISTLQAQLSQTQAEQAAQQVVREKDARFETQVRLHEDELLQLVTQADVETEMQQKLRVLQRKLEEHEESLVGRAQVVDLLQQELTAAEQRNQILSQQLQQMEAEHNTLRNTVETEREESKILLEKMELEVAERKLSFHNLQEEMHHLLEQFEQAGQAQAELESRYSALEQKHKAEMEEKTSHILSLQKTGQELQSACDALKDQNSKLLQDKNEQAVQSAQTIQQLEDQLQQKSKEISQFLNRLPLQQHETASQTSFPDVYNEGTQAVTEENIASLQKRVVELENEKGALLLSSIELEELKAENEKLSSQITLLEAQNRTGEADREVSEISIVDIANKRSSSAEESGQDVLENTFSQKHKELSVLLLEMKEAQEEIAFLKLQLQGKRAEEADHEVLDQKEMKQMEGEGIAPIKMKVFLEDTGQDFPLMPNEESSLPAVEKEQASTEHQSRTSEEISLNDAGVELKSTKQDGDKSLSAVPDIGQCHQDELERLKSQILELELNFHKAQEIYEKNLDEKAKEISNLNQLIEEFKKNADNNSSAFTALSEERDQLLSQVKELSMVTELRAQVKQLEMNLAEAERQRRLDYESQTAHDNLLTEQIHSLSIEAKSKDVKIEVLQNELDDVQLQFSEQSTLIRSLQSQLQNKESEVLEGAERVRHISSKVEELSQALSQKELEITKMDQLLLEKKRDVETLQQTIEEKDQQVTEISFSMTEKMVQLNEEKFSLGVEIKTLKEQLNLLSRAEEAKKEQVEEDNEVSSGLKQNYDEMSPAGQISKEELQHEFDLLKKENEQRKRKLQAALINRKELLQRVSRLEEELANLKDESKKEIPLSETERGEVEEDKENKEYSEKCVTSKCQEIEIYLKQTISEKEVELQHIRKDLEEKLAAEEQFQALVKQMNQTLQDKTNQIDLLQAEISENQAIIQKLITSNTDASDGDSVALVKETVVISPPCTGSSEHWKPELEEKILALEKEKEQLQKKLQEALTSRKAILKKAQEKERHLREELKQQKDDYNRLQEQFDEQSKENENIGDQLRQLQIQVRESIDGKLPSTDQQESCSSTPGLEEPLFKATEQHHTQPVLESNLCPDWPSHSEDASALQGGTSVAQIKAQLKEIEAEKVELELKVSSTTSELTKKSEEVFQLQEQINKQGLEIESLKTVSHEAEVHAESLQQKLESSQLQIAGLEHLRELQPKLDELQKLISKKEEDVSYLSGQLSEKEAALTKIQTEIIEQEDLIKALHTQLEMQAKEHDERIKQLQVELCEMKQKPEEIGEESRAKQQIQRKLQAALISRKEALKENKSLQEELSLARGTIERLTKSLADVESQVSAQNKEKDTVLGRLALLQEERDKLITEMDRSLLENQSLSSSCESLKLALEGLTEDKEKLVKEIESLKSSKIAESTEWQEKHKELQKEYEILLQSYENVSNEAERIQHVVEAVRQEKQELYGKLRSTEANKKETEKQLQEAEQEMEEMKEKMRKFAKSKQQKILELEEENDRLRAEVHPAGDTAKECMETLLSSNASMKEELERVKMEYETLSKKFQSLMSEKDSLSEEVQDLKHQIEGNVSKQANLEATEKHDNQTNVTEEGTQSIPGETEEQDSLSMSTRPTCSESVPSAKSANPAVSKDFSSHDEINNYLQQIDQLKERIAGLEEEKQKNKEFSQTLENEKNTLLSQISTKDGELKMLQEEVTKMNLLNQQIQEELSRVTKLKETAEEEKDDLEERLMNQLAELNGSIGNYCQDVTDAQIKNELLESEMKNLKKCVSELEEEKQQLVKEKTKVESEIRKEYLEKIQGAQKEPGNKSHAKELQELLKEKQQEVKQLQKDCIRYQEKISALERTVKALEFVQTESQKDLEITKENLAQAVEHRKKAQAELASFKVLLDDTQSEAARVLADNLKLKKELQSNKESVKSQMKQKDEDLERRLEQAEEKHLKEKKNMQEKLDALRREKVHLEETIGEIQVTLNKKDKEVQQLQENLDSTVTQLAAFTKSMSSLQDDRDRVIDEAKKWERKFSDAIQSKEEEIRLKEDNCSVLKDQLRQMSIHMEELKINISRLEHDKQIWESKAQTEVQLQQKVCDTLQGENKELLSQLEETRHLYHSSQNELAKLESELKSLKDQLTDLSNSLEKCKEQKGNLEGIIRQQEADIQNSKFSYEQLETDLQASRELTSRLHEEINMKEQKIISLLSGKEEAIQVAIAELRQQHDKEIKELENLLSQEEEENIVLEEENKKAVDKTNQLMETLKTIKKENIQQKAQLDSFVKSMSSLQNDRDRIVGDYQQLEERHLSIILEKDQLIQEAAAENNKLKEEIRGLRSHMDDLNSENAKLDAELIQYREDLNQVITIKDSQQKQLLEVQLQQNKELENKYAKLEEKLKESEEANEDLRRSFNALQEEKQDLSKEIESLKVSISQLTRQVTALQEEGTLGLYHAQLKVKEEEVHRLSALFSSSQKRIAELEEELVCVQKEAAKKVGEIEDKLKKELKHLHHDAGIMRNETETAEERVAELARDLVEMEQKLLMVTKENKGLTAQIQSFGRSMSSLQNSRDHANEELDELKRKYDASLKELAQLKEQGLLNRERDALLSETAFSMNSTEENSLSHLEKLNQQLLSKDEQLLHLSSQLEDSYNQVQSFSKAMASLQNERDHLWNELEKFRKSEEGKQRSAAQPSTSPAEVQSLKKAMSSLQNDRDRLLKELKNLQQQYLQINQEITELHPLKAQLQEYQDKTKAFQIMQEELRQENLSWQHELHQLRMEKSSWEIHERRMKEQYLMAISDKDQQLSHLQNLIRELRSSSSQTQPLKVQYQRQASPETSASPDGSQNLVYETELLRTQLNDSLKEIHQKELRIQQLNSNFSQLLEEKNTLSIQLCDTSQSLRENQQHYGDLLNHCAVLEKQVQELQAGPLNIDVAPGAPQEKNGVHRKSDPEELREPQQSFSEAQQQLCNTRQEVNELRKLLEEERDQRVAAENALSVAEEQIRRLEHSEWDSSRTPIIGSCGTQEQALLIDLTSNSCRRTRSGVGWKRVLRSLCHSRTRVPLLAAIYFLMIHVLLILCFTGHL

For assay [1], the target named is Giantin (human (endogenous in LSG and HSG cells)) (UniProt Q14789). Briefly: co-IP; pooled protein extracts of LSG from patients with SjD or controls (20 mM Tris-HCl pH 7.4, 150 mM NaCl, 1% Igepal, protease inhibitors); 500 ug total protein per assay; antibody-coated Protein-A/G-Sepharose beads; Western blot; control IgG anti-integrin alpha6.
For assay [2], the target named is T1, GM130 (human (endogenous in LSG and HSG cells)) (UniProt Q08379).
T1 sequence: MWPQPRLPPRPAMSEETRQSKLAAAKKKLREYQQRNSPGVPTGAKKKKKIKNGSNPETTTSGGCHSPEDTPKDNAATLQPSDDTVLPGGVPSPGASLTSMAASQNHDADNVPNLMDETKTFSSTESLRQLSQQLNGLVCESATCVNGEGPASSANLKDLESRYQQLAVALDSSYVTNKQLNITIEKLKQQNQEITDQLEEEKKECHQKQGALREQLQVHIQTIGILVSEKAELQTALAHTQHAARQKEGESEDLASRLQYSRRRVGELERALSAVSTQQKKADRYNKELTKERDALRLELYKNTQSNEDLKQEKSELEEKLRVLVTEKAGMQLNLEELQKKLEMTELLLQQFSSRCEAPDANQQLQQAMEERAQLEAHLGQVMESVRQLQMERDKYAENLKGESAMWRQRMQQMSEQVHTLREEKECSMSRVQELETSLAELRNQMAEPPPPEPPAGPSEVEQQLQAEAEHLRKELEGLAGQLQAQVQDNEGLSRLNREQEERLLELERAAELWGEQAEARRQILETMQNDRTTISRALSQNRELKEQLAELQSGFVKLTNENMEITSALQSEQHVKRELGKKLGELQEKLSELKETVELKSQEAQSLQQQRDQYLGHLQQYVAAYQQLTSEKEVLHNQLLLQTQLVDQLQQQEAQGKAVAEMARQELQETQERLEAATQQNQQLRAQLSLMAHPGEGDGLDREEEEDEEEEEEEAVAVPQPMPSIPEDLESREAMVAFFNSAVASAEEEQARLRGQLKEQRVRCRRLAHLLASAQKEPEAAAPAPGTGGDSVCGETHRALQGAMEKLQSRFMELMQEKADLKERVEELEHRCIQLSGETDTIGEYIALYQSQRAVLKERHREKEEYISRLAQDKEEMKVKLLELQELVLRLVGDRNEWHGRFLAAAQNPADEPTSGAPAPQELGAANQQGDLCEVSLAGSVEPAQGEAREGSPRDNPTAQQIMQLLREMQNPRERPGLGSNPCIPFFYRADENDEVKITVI
The assay is described as above.

Assay [3] concerns the target Giantin (human (endogenous in LSG and HSG cells)) (UniProt Q14789). Briefly: co-IP; protein extracts of HSG cells (20 mM Tris-HCl pH 7.4, 150 mM NaCl, 1% Igepal, protease inhibitors); 500 ug total protein per assay; antibody-coated Protein-A/G-Sepharose beads; Western blot; control IgG anti-integrin alpha6. On the technique in general: A western blot detects proteins with antibodies after separation by electrophoresis.

In assay [4] the target is T1, GM130 (human (endogenous in LSG and HSG cells)). The assay is described as above.

Results are given in words; binding and its absence hold for the method and conditions named. Binding seen in cells or lysates may run through a third protein. Some results given as binding are weak or reduced against the parent protein; the word gives no strength.

B1: Gal3-O-sulfotransferase 2 (enzyme, UniProt Q9H3Q3 1-398)
chain: MMSMLGGLQRYFRVILLLLLALTLLLLAGFLHSDLELDTPLFGGQAEGPPVTNIMFLKTHKTASSTVLNILYRFAETHNLSVALPAGSRVHLGYPWLFLARYVEGVGSQQRFNIMCNHLRFNLPQVQKVMPNDTFYFSILRNPVFQLESSFIYYKTYAPAFRGAPSLDAFLASPRTFYNDSRHLRNVYAKNNMWFDFGFDPNAQCEEGYVRARIAEVERRFRLVLIAEHLDESLVLLRRRLRWALDDVVAFRLNSRSARSVARLSPETRERARSWCALDWRLYEHFNRTLWAQLRAELGPRRLRGEVERLRARRRELASLCLQDGGALKNHTQIRDPRLRPYQSGKADILGYNLRPGLDNQTLGVCQRLVMPELQYMARLYALQFPEKPLKNIPFLGA
Take B1: the binding entry in assay [1] is given as “binds”; in assay [2] it was “no binding”; in assay [3], “binds”; in assay [4], “no binding”.
